# PubChem BioAssay AID504842 (National Center for Advancing Translational Sciences (NCATS), 2011)
# Among all 330,000 compounds or so, about 100 (0.03%) were called active. The inconclusive results got no clear call from the source; some entries with a clear call stand among them for comparison. Calls come from the whole dose curve; as a rule, active = well fitted inhibition curve with a large enough effect; inconclusive = small, poorly fitted or top-dose-only effect; inactive = flat fitted curve, though single readings scatter. Potencies beside an inconclusive call are fits to weak or partial responses and may not hold up.
# Test system: Chaperonin Mm-Cpn (Methanococcus maripaludis)
# Assay: Inhibitors of TCP-1 ring complex (TRiC) of Methanococcus maripaludis (MmCpn): qHTS; note: nearly all actives have a fitted effect of over 80% in size;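 for Potency: enzyme at 25 nM with ATP substrate at 10 µM during the reaction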
# Conditions: purified Mm-Cpn ATPase, ADP Transcreener TR-FRET
# In short: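 ATPase read-out: TR-FRET ADP immunoassay (anti-ADP Eu cryptate vs ADP-d2), ex 320 nm, em 590/665 nm; signal drops as ADP forms. Enzyme 25 nM, ATP 10 uM, 30 min at 37°C after 10 min compound preincubation.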
# Potency is the fitted concentration of half-maximal effect.
row,SMILES,Potency
1,CCC(C(=O)NCCCN1CCOCC1)n1c2ccccc2c2nc(=O)cc(C)n21 (configuration not stated),"inconclusive: 79.4 µM [inhibitor, single point]"
2,O=[N+]([O-])c1ccc(-c2c(-c3ccccc3)ncc3ccc(F)cc23)cc1,inactive
3,O=c1cc(-c2ccsc2)oc2ccc(-c3ccc4cc[nH]c4c3)cc12,inactive
4,Cc1ccc(NC(=O)c2oc3ccccc3c2NC(=O)C2CCCO2)cc1C (configuration not stated),"inconclusive: 79.4 µM [inhibitor, single point]"
5,CCOc1ccc(-c2c(C(=O)N/N=C(\C)c3cccnc3)nnn2-c2nonc2N)cc1,"inconclusive: 25.1 µM [inhibitor, single point]"
6,Oc1ccccc1-c1nnc(COc2ccc(Cl)cc2Cl)o1,"inconclusive: 100 µM [inhibitor, single point]"
7,CC(=O)N1CCc2c(sc(NC(=O)c3ccc4c(c3)OCCO4)c2C#N)C1,"inconclusive: 100 µM [inhibitor, single point]"
8,Cc1cc(C)n(-c2ccnc3cc(Cl)ccc23)n1,"inconclusive: 89.1 µM [inhibitor, single point]"
9,O=C(O)CCC(=O)N1CCN(c2nc(-c3ccccc3Cl)c3cc(Br)ccc3n2)CC1,"inconclusive: 282 µM [inhibitor, partial curve, poor fit]"
10,CCN(CC)S(=O)(=O)c1ccc(O)c(C(=O)OCC(=O)Nc2cc(C)c(C)cc2[N+](=O)[O-])c1,"inconclusive: 7.08 µM [inhibitor, single point]"
11,COc1nccnc1NS(=O)(=O)c1ccc(NC(=S)NC(=O)c2cccnc2)cc1,inactive
12,CCOC(=O)C1=CN(Cc2cccc(F)c2)S(=O)(=O)N(CC)C1c1ccc(F)c(Cl)c1 (configuration not stated),"inconclusive: 25.1 µM [inhibitor, single point]"
13,O=C1c2cccnc2-c2ncccc21,inactive
14,Cc1ccc(-c2ccc(C(=O)Nc3cccc(F)c3)o2)c2ccccc12,"inconclusive: 79.4 µM [inhibitor, single point]"
15,CCCCOc1ccc(N2C(=O)CC(N(O)c3ccccc3)C2=O)cc1 (configuration not stated),"inconclusive: 100 µM [inhibitor, single point]"
16,COC(=O)c1sccc1Oc1ccc(Cl)cc1N1C(=O)CCC1=O,"inconclusive: 79.4 µM [inhibitor, single point]"
17,c1ccc(Cc2nnc(Sc3ccccc3)c3ccccc23)cc1,"inconclusive: 251 µM [inhibitor, partial curve, poor fit]"
18,COc1ccc(C(OCC(O)CNC(C)c2ccccc2)c2ccc(OC)cc2)cc1 (configuration not stated),inactive
19,Cn1c(-c2ccc(C=O)s2)nc2c3ccccc3c3ccccc3c21,"inconclusive: 100 µM [inhibitor, single point]"
20,COc1ccc(NC(=O)CSc2nnc(-c3ccccc3F)n2C2CC2)cc1S(N)(=O)=O,"inconclusive: 158 µM [inhibitor, partial curve, poor fit]"
21,O=C(O)c1cc(-c2ccc(Cl)s2)nc2ccccc12,"inconclusive: 316 µM [inhibitor, partial curve, poor fit]"

# At a glance, 3 of the compounds above.
row,SMILES,Potency
14,Cc1ccc(-c2ccc(C(=O)Nc3cccc(F)c3)o2)c2ccccc12,"inconclusive: 79.4 µM [inhibitor, single point]"
15,CCCCOc1ccc(N2C(=O)CC(N(O)c3ccccc3)C2=O)cc1 (configuration not stated),"inconclusive: 100 µM [inhibitor, single point]"
16,COC(=O)c1sccc1Oc1ccc(Cl)cc1N1C(=O)CCC1=O,"inconclusive: 79.4 µM [inhibitor, single point]"

# (listing goes on)

row,SMILES,Potency
1,Cc1onc(-c2c(F)cccc2Cl)c1C(=O)Nc1nnc(C(F)(F)F)s1,"inconclusive: 70.8 µM [inhibitor, partial curve, poor fit]"
2,COCCN1C=C(C(=O)OC)C(c2ccccc2Cl)C(C(=O)OC)=C1,inactive
3,Cc1cc(=O)oc2cc(OCC(=O)OCC(=O)Nc3ccccc3F)ccc12,"inconclusive: 22.4 µM [inhibitor, single point]"
4,Cc1ccc(S(=O)(=O)NC(=O)c2cc(C)n(-c3cc(S(=O)(=O)N4CCOCC4)ccc3N3CCCC3)c2C)cc1,inactive
5,O=S(=O)(Oc1ccc(Cl)cc1)c1cccc2cccnc12,"inconclusive: 15.8 µM [inhibitor, single point]"
6,Cc1ccc(-n2nnnc2SCC(=O)Nc2ccc(N3CCN(C)CC3)cc2)c(C)c1,inactive
7,CCC(C(=O)NC1CCCC1)N(C(=O)Cn1nnc(-c2ccc(C)o2)n1)C(C)(C)C (configuration not stated),inactive
8,CCCC(C)C(=O)Nc1nc(C)c(-c2csc(Nc3cc(OC)ccc3OC)n2)s1 (configuration not stated),"inconclusive: 112 µM [inhibitor, partial curve, poor fit]"
9,COc1ccc(-n2c(C(C)(C)C)csc2=Nc2c(C)n(C)n(-c3ccccc3)c2=O)cc1,"inconclusive: 22.4 µM [inhibitor, single point]"
10,Cn1c(=O)c2c(SCC(=O)N3CCCC3)nc(CC(C)(C)C)nc2n(C)c1=O,"inconclusive: 100 µM [inhibitor, single point]"
11,COc1ccc(S(=O)(=O)N2CCC(C(=O)NCc3cccnc3)CC2)cc1C,"inconclusive: 31.6 µM [inhibitor, single point]"
12,COc1cc(/C=C/C(=O)OCC(=O)NC(=O)NC(C)(C)C)cc(OC)c1OC,"inconclusive: 10 µM [inhibitor, single point]"
13,N#Cc1ccc(-c2ccc(OCC3CNC(=O)O3)cc2)cc1 (configuration not stated),"inconclusive: 100 µM [inhibitor, partial curve, poor fit]"
14,O=C(Cn1c(C(=O)N2CCc3ccccc3C2)cc2sccc21)c1ccccc1,"inconclusive: 100 µM [inhibitor, single point]"
15,Cc1ccccc1NC(=O)COc1ccc(S(=O)(=O)N2CCCC2)cc1C,"inconclusive: 10 µM [inhibitor, single point]"
16,COc1cccc(C(=O)/C=C/Nc2ccc(S(=O)(=O)Nc3ccc(C(C)=O)cc3)cc2)c1,"inconclusive: 112 µM [inhibitor, partial curve, poor fit]"
17,CCOC(=O)NNC(=O)NCCCCCCNC(=O)NNC(=O)OCC,"inconclusive: 100 µM [inhibitor, single point]"
18,Cc1ccc(NC(=O)CSc2nnc(-c3ccncc3)n2N)cc1C,inactive
19,Cc1cccc(CS(=O)(=O)Cc2ccc(C(=O)NCCCN3CCOCC3)o2)c1,inactive
20,O=C(COC(=O)CCC(=O)c1ccc(F)cc1)NCc1ccccc1Cl,inactive
21,COC(=O)C1=CN(Cc2cccs2)C=C(C(=O)OC)C1c1cccc(O)c1,"inconclusive: 22.4 µM [inhibitor, single point]"
